{
  "sequences": {"note": "Chains of the proteins cited; added tags and fusions are not shown. Residues count along the entry.", "UniProt Q09118, residues 63-148": "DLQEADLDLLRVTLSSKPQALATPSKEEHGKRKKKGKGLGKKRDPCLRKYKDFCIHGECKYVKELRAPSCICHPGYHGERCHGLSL", "UniProt P00588, residues 33-567": "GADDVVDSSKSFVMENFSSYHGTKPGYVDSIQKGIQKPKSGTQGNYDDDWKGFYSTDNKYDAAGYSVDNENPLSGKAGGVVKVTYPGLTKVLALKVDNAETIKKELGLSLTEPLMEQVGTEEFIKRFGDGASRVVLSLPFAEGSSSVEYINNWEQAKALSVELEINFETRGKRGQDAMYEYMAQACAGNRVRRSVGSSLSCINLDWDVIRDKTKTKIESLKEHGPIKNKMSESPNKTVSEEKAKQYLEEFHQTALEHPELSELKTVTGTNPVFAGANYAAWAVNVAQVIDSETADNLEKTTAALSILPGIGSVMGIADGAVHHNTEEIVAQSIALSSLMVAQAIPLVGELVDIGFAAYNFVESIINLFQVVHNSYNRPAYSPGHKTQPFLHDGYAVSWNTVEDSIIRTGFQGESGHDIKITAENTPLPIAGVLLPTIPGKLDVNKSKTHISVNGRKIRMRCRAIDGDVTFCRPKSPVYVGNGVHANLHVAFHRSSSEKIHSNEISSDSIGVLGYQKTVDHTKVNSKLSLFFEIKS"},
  "source": "patent US20040152179A1",
  "about": "(US Dept. of Health and Human Services, published 2004)",
  "key": {"[1]": {"molecular_target": "diphtheria toxin receptor on Cos-7 cells (monkey kidney) (monkey) (UniProt Q09118)", "test": "cold competitor against I^125-labelled DT on Cos-7 cells"}, "[2]": {"molecular_target": "diphtheria toxin receptor on Cos-7 cells (monkey kidney) (monkey) (UniProt Q09118)", "test": "cold competitor against I^125-labelled DT, legend of FIG. 2"}},
  "note": "These are yes or no findings as the source states them, for the method shown. Some entries that bind do so weakly or less than the wild type.",
  "data": [
    {"substance": "native diphtheria toxin (from UniProt P00588 33-567) (ligand)", "values": [
      {"measurement": "binding", "setting": "[1]", "value": "binds"},
      {"measurement": "binding", "setting": "[2]", "value": "binds"}
    ]}
  ]
}
